Consider three sequences from PMC9216541 (PLoS ONE, 2022).

The exact form of at least one protein or probe is not confirmed. For some assays here: A weaker result is weaker than the reference pair of the same experiment. For some assays here: At least one verdict rests on a figure or table, not on a statement of the authors.

In data set [1] the test system is peptide 4 (stapled Nrf2-derived). The data set can be described thus: EMSA. Conditions: EMSA: 10 mM Tris pH 7.5, 100 mM KCl, 2 mM MgCl2, 0.5 mM EDTA, 10 ug/mL BSA, 0.1 mM DTT, 2.5% glycerol, 30 min RT, gel at 4 C; protein details: hydrocarbon staple; label: 5'-6FAM on strand 1. On the technique in general: Mobility shift assays separate free from complexed probe on a gel.

For data set [2] the test system is unchanged. As to the kind of experiment: fluorescence polarization. Conditions: FP: 50 mM Tris/HCl pH 7.5, 100 mM NaCl, 2 mM MgCl2, 0.5 mM EDTA, 10 ug/mL BSA, 0.1 mM DTT, 0.01% Tween-20, 10 nM DNA, 60 min RT; protein details: hydrocarbon staple; label: 5'-6FAM on strand 1.
For data set [3], the system named is peptide 5 (linear Nrf2-derived). The data set can be described thus: EMSA. Conditions: EMSA: 10 mM Tris pH 7.5, 100 mM KCl, 2 mM MgCl2, 0.5 mM EDTA, 10 ug/mL BSA, 0.1 mM DTT, 2.5% glycerol, 30 min RT, gel at 4 C; label: 5'-6FAM on strand 1.

In the case of “CGGAATATCGTCATAGCTATTACTC (double strand) [MARE23_scrambled]”, the binding result in data set [1] and in data set [2] was “binds” throughout.

For the sequence “CGGAATCAATGACTCATTGTTACTC (double strand) [MARE23]”, the binding result is listed as “binds” in data set [1] and “binds more weakly” in data set [3].

In the case of “CGGAATGCAATAAGTTACGTTACTC (double strand) [randomized sequence DNA]”, the binding result in data set [1] is reported as “binds”.
